Measurements published in US9803002B2, “Anti-wall teichoic antibodies and conjugates” (Genentech, Inc., priority 2013, dated 2017).
Some entries share one result that the patent states for a list of compounds.

Key:
[1] = tested on: MRSA (USA300); assay: Intravenous infection model in CB17.SCID mice reconstituted with human IgG; assay type: in vivo, mouse; settings: 50 mg/Kg 1 day after infection, kidneys day 4
Experimental: To confirm that the AAC would be effective in the presence of competing human antibodies in vivo, the in vivo infection model was modified to generate mice that express normal levels of human IgG in the serum. […] Four days after infection the bacterial load in the kidneys (FIG. 10C) was assessed.
Efficacy of the AAC was compared with that of treatment with vancomycin, the current standard of care treatment for MRSA infections. […] CB17.SCID mice were reconstituted with human IgG using a dosing regimen optimized to yield constant levels of at least 10 mg/mL of human IgG in serum.
7 week old female mice were used for all in vivo experiments and infections were carried out by intravenous injection into the tail vein. A/J mice (Jackson Lab) were infected with a dose of 2×10^6 CFU. […] For studies examining the role of competing human IgG (SCID IVIG model), CB17.SCID mice (Charles River Laboratories, Hollister, Calif.) were reconstituted with GammaGard S/D IGIV Immune Globulin (ASD Healthcare, Brooks Ky.) using a dosing regimen optimized to achieve constant serum levels of >10 mg/mL of human IgG. IGIV was administered with an initial intravenous dose of 30 mg per mouse followed by a second dose of 15 mg/mouse by intraperitoneal injection after 6 hours, and subsequent daily dosings of 15 mg per mouse by intraperitoneal injection for 3 consecutive days. […]

[2] = tested on: USA300 strain of MRSA; assay: Macrophage intracellular killing assay with opsonized bacteria; settings: USA300 NRS384; tested at 50, 5, 0.5 or 0.05 μg/mL

Row | Substance | reduction in bacterial loads ([1]; combined data from 3 experiments) | bacterial loads lower compared to mice treated with S4497 antibody control ([1]; on average) | doses effective at killing intracellular bacteria [2] [µg/mL]
1 | thio-S4497-HC-A118C-MC-vc-PAB-(dimethyl-pipBOR) [AAC-112] | greater than 4 log | over 10,000 fold | –
2 | thio-S6078 v4 HC-CYS, LC-CYS-MC-vc-PAB-(piperazBOR) [AAC-172] | – | – | ≥ 0.5
3 | thio-S6078 v4 HC-Cys LC-Cys-MC-vc-PAB-(dimethylpipBOR) [AAC-171] | – | – | ≥ 0.5
